The nature of series [1]: general procedure: Boc solid-phase peptide synthesis; 4-methylbenzhydrylamine (MBHA) resin; BHA resin; hydroxymethyl resin for C-terminal ethylamides.
The nature of series [2]: general procedure: Boc solid-phase peptide synthesis; hydroxymethyl resin. To be noted: whole synthesis.
A short description of series [3]: general procedure: Boc solid-phase peptide synthesis; BHA. The following applies: whole synthesis.
Series [4] is described as follows: general procedure: Boc solid-phase peptide synthesis; MBHA. To be noted: whole synthesis, scale 1.0 mmol.
[5] abbreviates: whole synthesis, scale 1.0 mmol.
Setting [6] is: whole synthesis, scale of the general procedure 1.0 mmol.

Some peptides are written in HELM: one residue between dots, names in brackets for other building blocks, links after the first $.

Take “PEPTIDE1{[Mpr].R.G.D.S.C.[am]}$PEPTIDE1,PEPTIDE1,1:R3-6:R3$$$V2.0”: the isolated mass in series [1] (setting [5]) was found to be 489 mg. Moreover, in series [1] (setting [6]), the “final purity (method not given)” value is listed as 96% and the isolated yield was 79%.

Substance “PEPTIDE1{[ac].C.R.G.D.[Pen].[NHEt]}$PEPTIDE1,PEPTIDE1,2:R3-6:R3$$$V2.0” gave an isolated mass in series [2] of 307 mg. In series [1] (setting [6]), the “final purity (method not given)” value was found to be 97% and the isolated yield stood at 48%.

As to N^α -Ac-Arg-Gly-Asp-Tyr-NH2, the isolated mass in series [3] (scale 0.5 mmol) is reported as 142.1 mg.

In the case of PEPTIDE1{[ac].R.G.D.S.[NHEt]}$$$$V2.0, the “final purity (method not given)” value in series [1] (setting [6]) is above 95%.

In series [1] (setting [5]), PEPTIDE1{[ac].R.G.D.[dS].[am]}$$$$V2.0 had an isolated mass of 337 mg. In addition, the “final purity (method not given)” value in series [1] (setting [6]) worked out at 95%.

Turning to “PEPTIDE1{[ac].C.[MeArg].G.D.[Pen].[am]}$PEPTIDE1,PEPTIDE1,2:R3-6:R3$$$V2.0”, the isolated mass in series [1] (setting [5]) is given as 209 mg. For the same substance, in series [1] (setting [6]), the “final purity (method not given)” value is given as 95% and the isolated yield amounted to 35%.

As for “PEPTIDE1{[ac].C.[dR].G.D.[Pen].[am]}$PEPTIDE1,PEPTIDE1,2:R3-6:R3$$$V2.0”, the isolated mass in series [1] (whole synthesis, scale 1.00 mmol) is 300 mg. Also, in series [1] (setting [6]), the “final purity (method not given)” value is 95% and the isolated yield worked out at 50%.

Consider “PEPTIDE1{[ac].C.[MeArg].G.D.Y.C.[am]}$PEPTIDE1,PEPTIDE1,2:R3-7:R3$$$V2.0”, for which, in series [1] (setting [5]), the isolated mass stood at 350 mg. Further, in series [1] (setting [6]), the “final purity (method not given)” value is 95% and the isolated yield is on record as 45%.

PEPTIDE1{[ac].R.G.D.[Nal].[am]}$$$$V2.0: the isolated mass in series [4] came out at 57 mg. The “final purity (method not given)” value in series [1] (setting [6]) was above 98%.

On to “PEPTIDE1{[ac].C.[HArg].G.D.[Pen].[am]}$PEPTIDE1,PEPTIDE1,2:R3-6:R3$$$V2.0”, for which, in series [1] (late stage modification step), the “final purity (method not given)” value is listed as 95% and the step yield worked out at 37%.

In series [1] (setting [5]), “N^α -Ac-Cyclo(S,S)Cys-Arg-Gly-Asp-Cys-NH2” came in with a crude mass of 280 mg. Moreover, in series [1] (setting [6]), the crude yield is 47% and the “final purity (method not given)” value came to 95%.

Consider “PEPTIDE1{[ac].C.[Et2Arg].G.D.[Pen].[am]}$PEPTIDE1,PEPTIDE1,2:R3-6:R3$$$V2.0”, for which the isolated mass in series [1] (whole synthesis) amounted to 590 mg. Moreover, in series [1] (setting [6]), the “final purity (method not given)” value is 95% and the isolated yield was 87%.

As for “PEPTIDE1{[ac].C.[MeArg].G.D.S.C.[am]}$PEPTIDE1,PEPTIDE1,2:R3-7:R3$$$V2.0”, in series [4], the crude mass was 678.6 mg and the crude yield was 98% crude yield. Besides, the isolated mass in series [1] (whole synthesis) was determined as 222.3 mg. For the same substance, the “final purity (method not given)” value in series [1] (setting [6]) is above 98%.

Regarding “N^α -Ac-Cyclo(S,S)Pen-MeArg-Gly-Asp-Pen-NH2”, the isolated mass in series [1] (whole synthesis) was determined as 395 mg. Further, in series [1] (setting [6]), the “final purity (method not given)” value turned out to be 95% and the isolated yield is on record as 60%.

“N^α -Ac-Cyclo(S,S)Cys-D-Arg-Gly-Asp-Ser-Cys-NH2” registered an isolated mass in series [1] (whole synthesis) of 370 mg. Further, in series [1] (setting [6]), the “final purity (method not given)” value is 95% and the isolated yield was determined as 55%.

For PEPTIDE1{[ac].R.G.D.V.[am]}$$$$V2.0, in series [4], the isolated mass came out at 125 mg. In series [1] (setting [6]), the “final purity (method not given)” value is above 95%.

“N^α -Ac-Cyclo(S,S)Cys-Sar-Arg-Gly-Asp-Pen-NH2” displayed an isolated mass in series [1] (whole synthesis) of 600 mg. In series [1] (setting [6]), the “final purity (method not given)” value is recorded as 95% and the isolated yield came out at 87%.

The substance Cyclo(S,S)Mpr-MeArg-Gly-Asp-Pen-NH2 registered an isolated mass in series [1] (whole synthesis) of 365 mg. Also, in series [1] (setting [6]), the “final purity (method not given)” value is given as above 96% and the isolated yield is 63%.

In turn, “PEPTIDE1{[ac].C.[MeArg].G.D.S.[Pen].[am]}$PEPTIDE1,PEPTIDE1,2:R3-7:R3$$$V2.0” yielded an isolated mass in series [1] (whole synthesis) of 47.5 mg. Besides, the crude mass in series [1] (setting [5]) is listed as 542 mg. Besides, in series [1] (setting [6]), the crude yield turned out to be 75% and the “final purity (method not given)” value is 94%.

For the substance PEPTIDE1{[ac].R.R.G.D.F.[am]}$$$$V2.0, the isolated mass in series [3] (scale 1.0 mmol) was 303.4 mg. In addition, in series [1] (setting [6]), the “final purity (method not given)” value was found to be 98%.

As to N^α -Ac-Arg-Gly-Asp-Ser-NH2, in series [3] (scale 0.5 mmol), the isolated mass worked out at 80.8 mg.

“PEPTIDE1{[ac].C.K.G.D.[Pen].[am]}$PEPTIDE1,PEPTIDE1,2:R3-6:R3$$$V2.0” returned an isolated mass in series [1] (whole synthesis, scale 2.0 mmol) of 180 mg. Also, in series [1] (setting [6]), the “final purity (method not given)” value is listed as above 97% and the isolated yield came to 15%.

In series [3], “Gly-MeArg-Gly-Asp-Ser-NH2 (RGDS; N-terminal Gly-Me; C-terminal amide; printed: Arg-Gly-Asp-Ser-)” gave an isolated mass of 406 mg. For the same substance, in series [1] (setting [6]), the “final purity (method not given)” value is above 95% and the isolated yield stood at 80%.

Substance “PEPTIDE1{[ac].[MeArg].G.D.S.[am]}$$$$V2.0” gave a crude mass in series [3] (scale 0.5 mmol) of 75.8 mg. For the same substance, in series [1] (whole synthesis), the isolated mass stood at 60.6 mg. In series [1] (setting [6]), the crude yield worked out at 31% and the “final purity (method not given)” value is recorded as above 96%.

In series [1] (whole synthesis, scale 1.5 mmol), “PEPTIDE1{[ac].C.R.G.D.[D-Pen].[am]}$PEPTIDE1,PEPTIDE1,2:R3-6:R3$$$V2.0” displayed an isolated mass of 50 mg. In series [1] (setting [6]), the “final purity (method not given)” value is above 96% and the isolated yield is 5.4%.

Turning to “PEPTIDE1{[Mpr].[MeArg].G.D.S.C.[am]}$PEPTIDE1,PEPTIDE1,1:R3-6:R3$$$V2.0”, in series [1] (setting [5]), the crude mass was 256.5 mg. Also, in series [1] (setting [6]), the crude yield is 40% and the “final purity (method not given)” value is listed as above 98%.

In turn, “PEPTIDE1{[ac].C.R.G.D.S.C.[am]}$PEPTIDE1,PEPTIDE1,2:R3-7:R3$$$V2.0” showed an isolated mass in series [1] (whole synthesis) of 61 mg. The same substance yielded a crude mass in series [1] (setting [5]) of 530 mg. In addition, in series [1] (setting [6]), the crude yield came out at 78% and the “final purity (method not given)” value was 90%.

“PEPTIDE1{[ac].C.R.G.D.[Pen].[am]}$PEPTIDE1,PEPTIDE1,2:R3-6:R3$$$V2.0”: the crude mass in series [1] (setting [5]) turned out to be 400 mg. Moreover, in series [1] (setting [6]), the crude yield was 65% and the “final purity (method not given)” value is above 97%.

In series [1] (whole synthesis), “N^α -Ac-Cyclo(S,S)Pen-Arg-Gly-Asp-Cys-NH2” displayed an isolated mass of 400 mg. In series [1] (setting [6]), the “final purity (method not given)” value is listed as 95% and the isolated yield is recorded as 65%.

Regarding “N^α -Ac-Cyclo(S,S)Cys-MeArg-Gly-Asp-Cys-NH2 (RGDC; N-acetyl; cyclic disulfide; C-terminal amide; printed: Arg-Gly-Asp-Cys-)”, the crude mass in series [1] (setting [5]) turned out to be 780 mg. Further, the “final purity (method not given)” value in series [1] (setting [6]) was above 98%.

“N^α -Ac-Cyclo(S,S)Cys-D-MeArg-Gly-Asp-Pen-NH2”: in series [1] (whole synthesis), the isolated mass is 450 mg. This substance showed an isolated yield in series [1] (setting [6]) of 71%.
